Results are given in words; binding and its absence hold for the method and conditions named. Some entries that bind do so weakly or less than the wild type.

Chains of the proteins cited; added tags and fusions are not shown. Lines headed by an entry give the natural chain unless they say otherwise; changes in a name come on top.
UniProt Q9Y286: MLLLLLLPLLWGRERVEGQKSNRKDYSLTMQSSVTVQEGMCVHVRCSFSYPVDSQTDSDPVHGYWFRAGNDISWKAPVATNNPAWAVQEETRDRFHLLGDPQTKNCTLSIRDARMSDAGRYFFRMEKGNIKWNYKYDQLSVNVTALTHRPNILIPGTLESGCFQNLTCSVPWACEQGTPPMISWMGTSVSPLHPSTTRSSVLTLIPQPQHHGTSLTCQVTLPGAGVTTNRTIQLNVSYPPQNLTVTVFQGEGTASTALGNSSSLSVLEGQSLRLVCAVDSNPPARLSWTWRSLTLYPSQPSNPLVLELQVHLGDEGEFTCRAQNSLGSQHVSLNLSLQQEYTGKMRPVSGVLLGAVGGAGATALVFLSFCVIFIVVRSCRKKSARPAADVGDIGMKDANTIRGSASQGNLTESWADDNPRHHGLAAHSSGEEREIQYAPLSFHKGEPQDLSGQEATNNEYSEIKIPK

The values that follow come from patent US20210246204A1 (Alector, published 2021).

For experiment [1], the target named is human Siglec-7 on primary human monocyte-derived dendritic cells (human) (UniProt Q9Y286). In words: flow cytometry, primary human dendritic cells.
Experiment [2] shares this target. In words: flow cytometry on primary human monocyte-derived dendritic cells, 30 min on ice, fluorescent anti-human IgG secondary antibody. A general note: A flow cytometer gives signals particle by particle.
Experiment [3] deals with histidine-tagged human Siglec-7 (NovoProtein) (human) (UniProt Q9Y286). Description: BLI.

B1: S7AB-H8.1 (antibody, V domains shown)
VH: QVQLVQSGAEVKKPGASVKVSCKASGYAFTETWMNWVRQAPGQGLEWIGRIFPGLGHTNYAQKFQGRATLTEDTSTSTAYMELSSLRSEDTAVYYCARDYSDYYFDYWGQGTLVTVSS
VL: DIQMTQSPSSLSASVGDRVTITCRGSQDINTYLNWYQQKPGKAPKLLIYYTSRLHSGVPSRFSGSGSGTDYTLTISSLQPEDFATYYCQQGNLLPWTFGQGTKLEIK
As to B1, the binding entry in experiment [1] and in experiment [2] was “binds” each time.

B2: S7AB-H8.43 (antibody, V domains shown)
VH: QVQLVQSGAEVKKPGASVKVSCKASGYAFTGYWMNWVRQAPGQGLEWIGRIFPGLGHTNYAQKFQGRATLTEDTSTSTAYMELSSLRSEDTAVYYCARDYSDYYFDYWGQGTLVTVSS
VL: DIQMTQSPSSLSASVGDRVTITCRGSQDINTYLNWYQQKPGKAPKLLIYYTSRLHSGVPSRFSGSGSGTDYTLTISSLQPEDFATYYCQQGNILPWTFGQGTKLEIK
notes: also called S7AB-H.43
Turning to B2, the binding result in experiment [3], in experiment [1] and in experiment [2] was “binds” in each case.

B3: S7AB-H8.11 (antibody, V domains shown)
VH: QVQLVQSGAEVKKPGASVKVSCKASGYAFTETWMNWVRQAPGQGLEWIGRIFPGLGHTNYAQKFQGRATLTEDTSTSTAYMELSSLRSEDTAVYYCARDYSDYYFDYWGQGTLVTVSS
VL: DIQMTQSPSSLSASVGDRVTITCRGSQDINTYLNWYQQKPGKAPKLLIYYTSRLHSGVPSRFSGSGSGTDYTLTISSLQPEDFATYYCQGGNTLPWTFGQGTKLEIK
Turning to B3, the binding result in experiment [1] and in experiment [2] was “binds” throughout.

B4: S7AB-H8.13 (antibody, V domains shown)
VH: QVQLVQSGAEVKKPGASVKVSCKASGYAFTGYWMNWVRQAPGQGLEWIGRIFPGLGHTNYAQKFQGRATLTEDTSTSTAYMELSSLRSEDTAVYYCARDYSDYYFDYWGQGTLVTVSS
VL: DIQMTQSPSSLSASVGDRVTITCRGSQDINTYLNWYQQKPGKAPKLLIYYTSRLHSGVPSRFSGSGSGTDYTLTISSLQPEDFATYYCQGGNTLPWTFGQGTKLEIK
On to B4, for which the binding result in experiment [1] and in experiment [2] was “binds” each time.

B5: S7AB-H8.18 (antibody, V domains shown)
VH: QVQLVQSGAEVKKPGASVKVSCKASGYAFTGYWMNWVRQAPGQGLEWIGRIFPGLGHTNYAQKFQGRATLTEDTSTSTAYMELSSLRSEDTAVYYCARDYSDYYFDYWGQGTLVTVSS
VL: DIQMTQSPSSLSASVGDRVTITCRGSQDTNTYLNWYQQKPGKAPKLLIYYTSRLHSGVPSRFSGSGSGTDYTLTISSLQPEDFATYYCQQGNTLPWTFGQGTKLEIK
Turning to B5, the binding result in experiment [2] is “binds”.

B6: S7AB-H8.2 (antibody, V domains shown)
VH: QVQLVQSGAEVKKPGASVKVSCKASGYAFTMAWMNWVRQAPGQGLEWIGRIFPGYGHTNYAQKFQGRATLTEDTSTSTAYMELSSLRSEDTAVYYCARDYSDYYFDYWGQGTLVTVSS
VL: DIQMTQSPSSLSASVGDRVTITCRGSQDINTYLNWYQQKPGKAPKLLIYYTSRLHSGVPSRFSGSGSGTDYTLTISSLQPEDFATYYCQQGNLLPWTFGQGTKLEIK
On to B6, for which the binding result in experiment [3], in experiment [1] and in experiment [2] was “binds” in each case.
